The target in this test is T1, human CaSR with FLAG-tag (FLAG-hCaSR) (human) (UniProt P41180).
T1 sequence: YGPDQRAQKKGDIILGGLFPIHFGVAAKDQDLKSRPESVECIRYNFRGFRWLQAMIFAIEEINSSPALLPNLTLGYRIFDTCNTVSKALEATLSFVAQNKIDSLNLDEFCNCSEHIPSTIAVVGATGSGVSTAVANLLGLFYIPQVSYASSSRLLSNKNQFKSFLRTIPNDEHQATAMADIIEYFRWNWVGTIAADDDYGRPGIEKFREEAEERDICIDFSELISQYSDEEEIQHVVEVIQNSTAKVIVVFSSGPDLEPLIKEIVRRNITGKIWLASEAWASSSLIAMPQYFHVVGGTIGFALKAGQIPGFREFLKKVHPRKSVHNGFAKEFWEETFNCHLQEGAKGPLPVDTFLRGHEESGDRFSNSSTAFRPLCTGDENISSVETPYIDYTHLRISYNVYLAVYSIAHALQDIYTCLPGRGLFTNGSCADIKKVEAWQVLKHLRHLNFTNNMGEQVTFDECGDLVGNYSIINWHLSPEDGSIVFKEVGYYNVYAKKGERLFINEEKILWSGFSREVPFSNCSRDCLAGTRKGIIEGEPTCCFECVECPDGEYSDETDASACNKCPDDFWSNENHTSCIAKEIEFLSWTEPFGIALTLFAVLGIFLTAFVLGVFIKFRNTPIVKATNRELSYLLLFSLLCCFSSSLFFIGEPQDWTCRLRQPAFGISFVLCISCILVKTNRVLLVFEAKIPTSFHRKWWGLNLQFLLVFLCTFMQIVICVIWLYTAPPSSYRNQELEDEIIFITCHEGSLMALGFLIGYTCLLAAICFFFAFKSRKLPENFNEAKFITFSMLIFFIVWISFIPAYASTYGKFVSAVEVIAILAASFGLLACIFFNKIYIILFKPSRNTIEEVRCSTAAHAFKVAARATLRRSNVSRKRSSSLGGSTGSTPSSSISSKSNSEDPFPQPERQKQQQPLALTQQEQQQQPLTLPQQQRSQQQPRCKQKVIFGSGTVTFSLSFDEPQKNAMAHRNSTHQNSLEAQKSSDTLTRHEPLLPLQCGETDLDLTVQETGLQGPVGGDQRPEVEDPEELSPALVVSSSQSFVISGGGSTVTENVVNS
The test is described as follows: co-IP; anti-FLAG IP from total extracts of HEK293 cells transfected with FLAG-CaSR and VAPA or GRP78, cells treated with 4 mM Ca2+ or 2 mM EGTA; 100% of the beads used for western blot with anti-VAPA or anti-GRP78; triplicates. A general note: In western blotting, separated proteins are transferred to a membrane and probed.

Protein sequences, listed by entry. Tags and fused reporters are not part of them. Residues count along the entry.
UniProt P11021, residues 19-654: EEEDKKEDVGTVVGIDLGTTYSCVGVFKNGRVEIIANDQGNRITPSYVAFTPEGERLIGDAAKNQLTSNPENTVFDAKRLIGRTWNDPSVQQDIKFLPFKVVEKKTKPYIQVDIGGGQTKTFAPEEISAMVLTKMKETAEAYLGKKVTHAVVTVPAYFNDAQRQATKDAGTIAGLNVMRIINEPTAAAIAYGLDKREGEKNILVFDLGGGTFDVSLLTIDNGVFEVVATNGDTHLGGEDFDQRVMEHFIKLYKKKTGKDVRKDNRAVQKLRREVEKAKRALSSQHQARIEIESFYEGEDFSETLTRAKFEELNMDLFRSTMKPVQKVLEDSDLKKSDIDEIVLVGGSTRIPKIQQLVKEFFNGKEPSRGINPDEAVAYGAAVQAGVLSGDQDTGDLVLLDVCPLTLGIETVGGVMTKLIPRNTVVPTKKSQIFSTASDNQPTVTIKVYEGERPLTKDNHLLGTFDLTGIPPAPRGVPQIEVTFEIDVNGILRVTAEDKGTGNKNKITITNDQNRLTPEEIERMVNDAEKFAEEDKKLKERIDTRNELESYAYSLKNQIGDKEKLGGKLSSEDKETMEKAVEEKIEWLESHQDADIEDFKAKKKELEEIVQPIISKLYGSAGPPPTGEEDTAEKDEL

Consider one substance from paper PMC8523568.

No constants are given. Whether binding was seen depends on the method and setting. Binding seen in cells or lysates may run through a third protein. Some binding calls cover weakened binding; strength is not graded here. Where a sequence is shown, tags or fusion partners need not be part of it.

On to “GRP78, transfected (from UniProt P11021 19-654)”, for which the binding result is recorded as “binds”.
